No constants are given. Whether binding was seen depends on the method and setting. Some binding calls cover weakened binding; strength is not graded here. Each block holds one substance with its values, some of them ahead of it.
How the values were obtained:
[1] = target: KorB (wild type), C-terminally His-tagged (plasmid RK2 (Escherichia coli)) (UniProt P07674); assay: condition: 200 μM protein partner injected into 20 μM KorB dimer; ITC; 20 μM KorB dimer (WT or mutant) in the cell, 200 μM protein partner injected; 25 °C; 10 mM Tris–HCl, 150 mM NaCl, pH 8.0; one-site binding model; duplicate; both purified
[2] = target: KorB (F249A), C-terminally His-tagged (plasmid RK2 (Escherichia coli)) (UniProt P07674); assay: as above
[3] = target: KorB∆N30∆CTD, His-tagged (plasmid RK2 (Escherichia coli)) (UniProt P07674); assay: crystal structure; KorBΔN30ΔCTD–KorA complex with 14 bp OA DNA duplex, no CTPγS added; 2.7 Å; two KorA, two KorB subunits and one DNA duplex in the asymmetric unit; both purified
[4] = target: T1, E. coli RNA polymerase σ^70 holoenzyme (Eσ^70) (E. coli) (UniProt P0A7Z4+P0A8V2+P0A8T7+P0A800+P00579); assay: condition: 2.5-fold molar excess (12.5 μM) of KorA over 5 μM Eσ^70; native MS; 5 μM Eσ^70 on 5.5 μM 100 bp PkorA DNA with 2.5-fold excess (12.5 μM) KorA dimer; 150 mM ammonium acetate pH 7.5, 0.01% Tween-20; both purified
[5] = target: T1, E. coli RNA polymerase σ^70 holoenzyme (Eσ^70) (E. coli); assay: condition: 2.5-fold excess KorA dimer over 5 μM Eσ^70; native MS; 5 μM Eσ^70 without promoter DNA with 2.5-fold excess KorA dimer; 300 mM or 150 mM ammonium acetate pH 8.0, 0.01% Tween-20; both purified
[6] = target: T1, E. coli RNA polymerase σ^70 holoenzyme (Eσ^70) (E. coli); assay: condition: 2.5-fold molar excess (12.5 μM) of KorB over 5 μM Eσ^70; native MS; 5 μM Eσ^70 on 5.5 μM 100 bp PkorA DNA with 2.5-fold excess (12.5 μM) KorB dimer; 500 mM ammonium acetate pH 7.5, 0.01% Tween-20; both purified
[7] = target: KorB∆N30∆CTD, His-tagged (plasmid RK2 (Escherichia coli)) (UniProt P07674); assay: crystal structure; KorBΔN30ΔCTD with 1 mM MgCl2 and 1 mM CTPγS; 2.3 Å; six protomers (three dimers) in the asymmetric unit, domain-swapped; both purified

Substance: KorA (Y84A), C-terminally His-tagged (from UniProt P03052)
- binding [1]: no binding

Substance: KorA (wild type), C-terminally His-tagged (from UniProt P03052 1-101)
- binding [2]: no binding
- binding [3]: binds
- binding [4]: no binding
- binding [5]: no binding

- binding [6]: no binding
Substance: KorB (wild type), C-terminally His-tagged (from UniProt P07674 1-358)

- binding [3]: binds
- binding [7]: binds
Substance: KorB∆N30∆CTD, His-tagged (from UniProt P07674 31-253) (domain or fragment)
